Data: US20240269125A1, “METHODS OF TREATING CORONAVIRUS INFECTIONS BY CO-ADMINISTERING AN FKBP LIGAND AND AN ANTIVIRAL AGENT” (priority 2020, published 2024)
At least one structure is not confirmed: it was looked up by name or label, or the drawing left a doubt.

Test system: SARS COV-2 (USA_WA1/2020)
Assay type: cell-based
Conditions: Example 10; remdesivir alone up to 6,666.667 nM; FK1706 alone up to 60,000 nM

CCC(CC)COC(=O)[C@H](C)N[P@](=O)(OC[C@H]1O[C@@](C#N)(c2ccc3c(N)ncnn23)[C@H](O)[C@@H]1O)Oc1ccccc1 [Remdesivir]
antiviral activity as single agent: no significant antiviral activity
